Source: the supplement of paper PMC3334620
Over roughly 33,000 sequences, “E-score (-0.5 to 0.5)” has its median near -0.0034; the highest 2% begin near 0.25. The list shows a part of the results.

What follows are sequences tested against T1, Yap3 (UniProt P38749) (assay: PBM E-score (8-mer binding enrichment) (E-score (-0.5 to 0.5)); higher = stronger / more preferred TF binding). Settings: protein concentration: 100 nM; construct: GST-full length.
T1 sequence: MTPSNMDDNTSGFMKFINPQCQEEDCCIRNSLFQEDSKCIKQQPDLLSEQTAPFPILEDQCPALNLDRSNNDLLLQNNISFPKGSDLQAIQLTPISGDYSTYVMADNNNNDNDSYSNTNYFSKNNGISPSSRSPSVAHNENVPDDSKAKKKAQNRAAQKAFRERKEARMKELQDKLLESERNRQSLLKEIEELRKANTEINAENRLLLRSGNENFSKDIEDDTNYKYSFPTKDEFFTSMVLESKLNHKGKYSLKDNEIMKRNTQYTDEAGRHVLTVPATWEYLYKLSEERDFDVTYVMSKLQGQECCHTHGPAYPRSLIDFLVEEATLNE
In short: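 Universal all-10-mer Agilent arrays, double-stranded by primer extension on fresh or once-stripped slides, were probed with about 100-200 nM GST-tagged yeast transcription factors made by PURExpress. Fluorescent anti-GST detected bound protein, and masliner normalised the scans. E-scores from the Universal PBM Analysis Suite were given to each ungapped eight-base word pooled with its reverse complement.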

Sequence | PBM E-score
GCTAGCAC | -0.0793
GCAGCGGA | 0.0629
AAGTGACA | 0.177
GCACTCGC | -0.0885
GCTCCTCC | -0.294
CACCGCAA | 0.134
AGACAAAA | 0.0827
ATGCTGGA | 0.0591
GAGCTTCC | 0.0263
AACACGAC | 0.0761
GGTGTTAC | -0.09
CCACCTCA | -0.101
ACTTAGCA | -0.0984
AATCTCAA | 0.134
GGGATAGA | 0.0132
GATGTGCC | -0.0417
GACCTGGC | -0.116
AACATGGA | 0.0539
AACCCACA | 0.0388
CCCGATCA | -0.27
CAGAATTC | -0.0196
CACAGTGG | -0.0278

Sequence | PBM E-score
GGACCGAC | -0.16
AAGAAGAC | 0.0114
CGCAGACC | -0.287
ATCTTCTG | 0.0431
CCCGACGC | -0.144
AGATAGCC | -0.173
AGGAGTAT | -0.0208
CCGATAGC | -0.203
AGTAACGG | 0.0541
GGGATCAC | -0.211
CGGCCCTC | -0.266
AAGACGCG | -0.0599
ACACAATG | 0.208
ACATCCGA | -0.0314
TAATGACA | 0.197
CAAGGGGC | -0.123
ACCTGTTG | 0.0774
GAGGCACC | -0.278
CGGTTCTC | -0.187
CCGCTACG | -0.213
CCACGTCC | -0.13
ACGACTTC | -0.058

Rewritten comma-delimited: part of the list above
Sequence,PBM E-score
CAAGGGGC,-0.123
ACCTGTTG,0.0774
GAGGCACC,-0.278
CGGTTCTC,-0.187

Later entries

Sequence | PBM E-score
GGCGTACA | -0.106
ATATTCAC | 0.254
CAATTTAA | 0.103
ACTGGTAG | -0.0187
CTGGGCAA | 0.00899
CACTTATC | 0.152
AAAATAGC | -0.0905
CAGCCTCA | -0.0498
ACTTTTTC | 0.0431
CGTGTTGC | -0.00931
CGATCGCG | 0.182
ACGGACAA | 0.191
AGCAAACT | 0.158
AGTAACTG | 0.0876
CACACAAG | 0.00224
AACTAATT | 0.149
CGTCGTTA | -0.0771
GCTTTCTA | 0.246
GTAGAACA | -0.21
GGCTGTTA | -0.0091
GGCGACCA | -0.3
ACAGCACT | -0.0309

Sequence | PBM E-score
CGAAGCAC | -0.0204
TATACATA | 0.17
AAAACTGG | 0.144
ACCTCGCC | -0.223
CGGGACAC | -0.162
CAATGTTA | 0.0767
GTCGGACA | 0.0371
TGGAGACA | 0.155
TTCAAAAA | 0.0865
TAAGCTTA | 0.164
CAAGCAAA | 0.00556
CCATCTGA | -0.0418
CACACATC | -0.0233
ACTGCATG | 0.0758
TCAGTTAA | 0.126
ACAGCATG | -0.0202
AATAGCCT | -0.113
CCAGTGTA | 0.127
AGGATATA | 0.161
GCTTTAGA | -0.0444
